{"source": "paper PMC12000569", "assay_in_all_cases": "co-IP; Fig. 4J, K and Supplementary Fig. 2G-I; cell lysate in IP lysis buffer with protease inhibitors, magnetic beads with selected antibodies, overnight at 4 °C, Western blot; cells and bait not stated", "key": {"HSP90AA1": {"biological_target": "HSP90AA1 (UniProt P07900)"}, "IFI6": {"biological_target": "T1, IFI6 (UniProt P09912)", "T1 sequence": "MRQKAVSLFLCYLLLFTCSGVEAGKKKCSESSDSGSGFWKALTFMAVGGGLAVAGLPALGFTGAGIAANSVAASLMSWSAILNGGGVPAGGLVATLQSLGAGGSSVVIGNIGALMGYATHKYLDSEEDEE"}, "TGFB1": {"biological_target": "TGFB1 (UniProt P01137)"}}, "note": "These are yes or no findings as the source states them, for the method shown. In cells and extracts the contact can be indirect. Some entries that bind do so weakly or less than the wild type."}
{"substance": "AHSA1 (Activator of HSP90AA1 ATPase Activity 1) (from UniProt O95433 1-338)", "values": [{"measurement": "binding", "setting": "HSP90AA1", "value": "binds"}, {"measurement": "binding", "setting": "IFI6", "value": "binds"}, {"measurement": "binding", "setting": "TGFB1", "value": "binds"}]}
{"substance": "HSP90AA1 (from UniProt P07900 1-732)", "values": [{"measurement": "binding", "setting": "IFI6", "value": "binds"}, {"measurement": "binding", "setting": "TGFB1", "value": "binds"}]}
